PubChem BioAssay AID1224830 | NIAID – 2016
Test: 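Host factors that control LPS-induced TNF expression in human macrophages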 (primary screen). Cells: human THP-1 monocytic leukaemia cells, TNF dual-luciferase reporter clone, PMA-differentiated to macrophage-like cells. Reagent: siRNA pool against human genes, 50 nM. Timing: LPS for 4 h, given about 3 days after siRNA transfection. Challenge: bacterial LPS (TLR4 ligand), 10 ng/ml. Detection: 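TNF firefly reporter luminescence divided by renilla, normalised to the plate median, then turned into a robust z-score for each replicate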. Reading the numbers: TNF reporter robust z-score: higher = stronger TNF reporter response to LPS. Call rule: 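Each well counts as active if its z-score is over 2.8 or under -1.5; controls are left without a call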.
Shown is an unselected part of about 18,000 deposited reagents. In the full data, about 2,900 (16%) got an active call. 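Calls are made per well; low scores hint the gene aids the LPS response, high scores that it dampens it.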 A number with no mark means an inactive call. Repeated entries: four replicate wells of each siRNA pool.

NOP16 (NOP16 nucleolar protein) | TNF reporter robust z-score: 2.46
NOP16 (NOP16 nucleolar protein) | TNF reporter robust z-score: 1.91
NOP16 (NOP16 nucleolar protein) | TNF reporter robust z-score: 1.44
NOP16 (NOP16 nucleolar protein) | TNF reporter robust z-score: -1
ACE2 (angiotensin converting enzyme 2) | TNF reporter robust z-score: 0
ACE2 (angiotensin converting enzyme 2) | TNF reporter robust z-score: -0.41
ACE2 (angiotensin converting enzyme 2) | TNF reporter robust z-score: 0.44
ACE2 (angiotensin converting enzyme 2) | TNF reporter robust z-score: -0.09
ADCK5 (aarF domain containing kinase 5) | TNF reporter robust z-score: 1.13
ADCK5 (aarF domain containing kinase 5) | TNF reporter robust z-score: 1.23
ADCK5 (aarF domain containing kinase 5) | TNF reporter robust z-score: 0.02
ADCK5 (aarF domain containing kinase 5) | TNF reporter robust z-score: 1.84
CALML5 (calmodulin like 5) | TNF reporter robust z-score: -0.45
CALML5 (calmodulin like 5) | TNF reporter robust z-score: -0.63
CALML5 (calmodulin like 5) | TNF reporter robust z-score: 0.4
CALML5 (calmodulin like 5) | TNF reporter robust z-score: -0.48
VPS51 (VPS51 subunit of GARP complex) | TNF reporter robust z-score: 0.36
VPS51 (VPS51 subunit of GARP complex) | TNF reporter robust z-score: 0.29
VPS51 (VPS51 subunit of GARP complex) | TNF reporter robust z-score: 0.47
VPS51 (VPS51 subunit of GARP complex) | TNF reporter robust z-score: -0.2
JUN (Jun proto-oncogene, AP-1 transcription factor subunit) | TNF reporter robust z-score: -2.23 (active)
JUN (Jun proto-oncogene, AP-1 transcription factor subunit) | TNF reporter robust z-score: -1.71 (active)
JUN (Jun proto-oncogene, AP-1 transcription factor subunit) | TNF reporter robust z-score: -1.75 (active)
JUN (Jun proto-oncogene, AP-1 transcription factor subunit) | TNF reporter robust z-score: -2 (active)
RNF208 (ring finger protein 208) | TNF reporter robust z-score: -0.42
RNF208 (ring finger protein 208) | TNF reporter robust z-score: 1.95
RNF208 (ring finger protein 208) | TNF reporter robust z-score: 1.69
RNF208 (ring finger protein 208) | TNF reporter robust z-score: 0.04
GPAT4 (glycerol-3-phosphate acyltransferase 4) | TNF reporter robust z-score: 1.31
GPAT4 (glycerol-3-phosphate acyltransferase 4) | TNF reporter robust z-score: -0.02
GPAT4 (glycerol-3-phosphate acyltransferase 4) | TNF reporter robust z-score: 0.23
GPAT4 (glycerol-3-phosphate acyltransferase 4) | TNF reporter robust z-score: -0.37
SLITRK4 (SLIT and NTRK like family member 4) | TNF reporter robust z-score: -0.87
SLITRK4 (SLIT and NTRK like family member 4) | TNF reporter robust z-score: -0.4
SLITRK4 (SLIT and NTRK like family member 4) | TNF reporter robust z-score: -0.46
SLITRK4 (SLIT and NTRK like family member 4) | TNF reporter robust z-score: -0.49
NPAT (nuclear protein, coactivator of histone transcription) | TNF reporter robust z-score: 2.77
NPAT (nuclear protein, coactivator of histone transcription) | TNF reporter robust z-score: 2.36
NPAT (nuclear protein, coactivator of histone transcription) | TNF reporter robust z-score: -0.07
NPAT (nuclear protein, coactivator of histone transcription) | TNF reporter robust z-score: -0.34
ZBED1 (zinc finger BED-type containing 1) | TNF reporter robust z-score: -0.14
ZBED1 (zinc finger BED-type containing 1) | TNF reporter robust z-score: -1.27
ZBED1 (zinc finger BED-type containing 1) | TNF reporter robust z-score: -1.11
ZBED1 (zinc finger BED-type containing 1) | TNF reporter robust z-score: -0.25
RAI14 (retinoic acid induced 14) | TNF reporter robust z-score: -0.99
RAI14 (retinoic acid induced 14) | TNF reporter robust z-score: -0.25
RAI14 (retinoic acid induced 14) | TNF reporter robust z-score: -0.64
RAI14 (retinoic acid induced 14) | TNF reporter robust z-score: -0.62

Called active, among the entries above:
JUN (Jun proto-oncogene, AP-1 transcription factor subunit) | TNF reporter robust z-score: -2.23 (active)
JUN (Jun proto-oncogene, AP-1 transcription factor subunit) | TNF reporter robust z-score: -1.71 (active)
JUN (Jun proto-oncogene, AP-1 transcription factor subunit) | TNF reporter robust z-score: -1.75 (active)
JUN (Jun proto-oncogene, AP-1 transcription factor subunit) | TNF reporter robust z-score: -2 (active)
